# Over roughly 33,000 sequences, “E-score (-0.5 to 0.5)” has its median near -0.015; the highest 2% begin near 0.3. This is one part of the list.
# Biological target: T1, Abf1 (UniProt P14164)
# T1 sequence: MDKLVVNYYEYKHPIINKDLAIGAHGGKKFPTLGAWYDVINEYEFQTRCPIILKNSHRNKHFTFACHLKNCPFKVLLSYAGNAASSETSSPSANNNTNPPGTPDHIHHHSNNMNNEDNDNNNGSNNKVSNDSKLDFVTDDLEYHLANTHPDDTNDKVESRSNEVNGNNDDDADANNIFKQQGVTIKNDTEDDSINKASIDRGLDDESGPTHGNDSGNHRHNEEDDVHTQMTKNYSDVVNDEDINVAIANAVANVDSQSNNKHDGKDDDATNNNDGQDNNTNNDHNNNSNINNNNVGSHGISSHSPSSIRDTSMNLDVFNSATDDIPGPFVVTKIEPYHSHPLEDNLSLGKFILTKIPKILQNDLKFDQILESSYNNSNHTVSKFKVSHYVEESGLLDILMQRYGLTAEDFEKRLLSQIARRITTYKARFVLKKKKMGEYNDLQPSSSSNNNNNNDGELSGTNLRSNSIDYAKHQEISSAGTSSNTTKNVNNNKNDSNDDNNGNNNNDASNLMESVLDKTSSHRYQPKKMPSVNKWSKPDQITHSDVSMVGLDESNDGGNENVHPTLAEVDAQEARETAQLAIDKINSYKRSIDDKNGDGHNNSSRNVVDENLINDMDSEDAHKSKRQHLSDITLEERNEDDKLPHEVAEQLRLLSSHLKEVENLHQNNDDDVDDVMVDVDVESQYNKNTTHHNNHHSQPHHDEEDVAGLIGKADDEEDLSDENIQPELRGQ
# Assay: PBM E-score (8-mer binding enrichment) (E-score (-0.5 to 0.5)); higher = stronger / more preferred TF binding
# Details: protein concentration: 200 nM; construct: GST-full length
# Summary of the method: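 GST-tagged yeast TFs (full-length or DNA-binding domain) were made by PURExpress in vitro transcription/translation and applied at about 100-200 nM to universal all-10-mer Agilent arrays. The arrays were made double-stranded by primer extension, on fresh or once-stripped slides. Bound protein was detected with fluorescent anti-GST, and scans were normalised with masliner. Each ungapped eight-base word, pooled with its reverse complement, received an E-score (modified Wilcoxon-Mann-Whitney statistic) from the Universal PBM Analysis Suite.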
row,Sequence,PBM E-score
1,TAGTGCCA,-0.05
2,ACGCTAGA,-0.233
3,ACCGAGGA,-0.112
4,CTTCACTA,0.0206
5,TATCCTAA,0.116
6,AAGCAGTC,-0.165
7,ACACCGGC,-0.145
8,CGACTGTA,-0.0739
9,AGTATGTA,-0.2
10,TAGTAAAA,0.0887
11,ATCAAGTA,0.101
12,ACAATCTG,-0.0534
13,CCATACGA,0.283
14,ATACCTAC,0.209
15,GAATTGCA,-0.13
16,CCAGCTCC,-0.268
17,AGACTGCG,-0.178
18,ACTCGAAC,0.0108
19,GATGACCC,0.189
20,AAGTTTAC,-0.0254
21,CTATGGAG,-0.268
22,TATTCTGA,0.0481
23,AGACTGGG,-0.198
24,ACACCGGG,-0.16
25,ATAGTTTA,0.0147

row,Sequence,PBM E-score
1,CTAGACGA,0.141
2,GCTTGAGA,-0.11
3,AGTACGGC,0.224
4,CTCCGATA,-0.223
5,AGTTGTAA,-0.0354
6,ATTTTATA,0.247
7,ACTAGCAC,-0.125
8,CCGGTGAC,0.227
9,ATGGTGAG,-0.00969
10,GACCAGTC,-0.118
11,AGGACAGA,-0.0582
12,AGCAATGG,-0.16
13,GCTTCTAC,-0.0278
14,CTTGAATA,0.0765
15,GGAGGAGA,-0.314
16,CAAATTGC,-0.0248
17,ACGCTGCT,0.0457
18,GAACTAGA,0.0188
19,CCTCCCAA,-0.0844
20,ATATGCTA,-0.0264
21,GCAAATAA,0.0284
22,CGTCTCTA,-0.0126
23,AACCTTCG,0.0857
24,AACCGTCA,0.0401
25,CTGGCGAC,0.0148

row,Sequence,PBM E-score
1,TTGTCAAA,-0.0739
2,GTACTCAC,0.261
3,CCTTCAAA,0.0786
4,ATTCCCAG,0.114
5,AAGTAAAG,-0.22
6,TAGGTAGA,-0.128
7,GTATTAAA,0.229
8,CAGGCTGC,-0.244
9,CCTAACAA,0.101
10,CATCGCTC,0.0948
11,GGGTCCGA,-0.158
12,TAACGGTA,0.12
13,TACTTTGA,0.121
14,CCTGATAA,0.1
15,CCCCTAAA,-0.346
16,GGATCGCA,0.0421
17,CCAGGAGA,-0.0792
18,CATGGAGA,0.0883
19,GTTTTGAA,0.0828
20,GGCGGTAA,-0.0833
21,AATGCGGG,0.0524
22,CAGACATC,0.101
23,ATGGAAGC,-0.258
24,ATTAGGAG,-0.0794
25,ACAGTGAT,0.294

# Quoted at random: 2 records from the list.
row,Sequence,PBM E-score
9,AGTATGTA,-0.2
24,ATTAGGAG,-0.0794

# 3 entries from above, with bars between the fields.
row | Sequence | PBM E-score
5 | AAGTAAAG | -0.22
10 | CATCGCTC | 0.0948
25 | ACAGTGAT | 0.294

# Carrying on.

row,Sequence,PBM E-score
1,CCGATAAC,-0.00362
2,GGCGTACC,-0.196
3,AAGGTTCC,-0.0986
4,CCAAGTGA,0.0334
5,ATCGCACC,-0.0624
6,CGGAAAGC,-0.0608
7,CATAGATA,0.06
8,TTCGCGAA,0.0531
9,TCGATACA,0.132
10,ATCTGCCC,-0.189
11,AAACTTAG,0.0351
12,AAAGTTAA,0.222
13,GTTGCCTA,-0.155
14,CTGCCGCC,-0.235
15,CAAGTTGA,-0.187
16,GACCATCA,-0.0399
17,CAATTCTC,-0.068
18,GATCTCGC,0.0902
19,ATTGTGTC,-0.035
20,ACTTATAC,0.117
21,AAGTAAGT,-0.091
22,AACGGCAG,0.132
23,GAGCGCTC,-0.0308
24,ATAGAAAG,-0.158
25,GTTGGACA,0.0476

row,Sequence,PBM E-score
1,ATACCGCG,-0.06
2,ATTTATTG,0.0665
3,AGTCGGAC,-0.0189
4,TACTATGA,0.176
5,ACAGATAG,-0.227
6,ATGCACTC,-0.0272
7,ATACCAAA,0.0398
8,CCCCGCCC,-0.195
9,AACTTCTC,0.0278
10,CCGATTTC,-0.122
11,AACAGTAT,0.0291
12,ACTTATGG,-0.0559
13,CCATTGAG,-0.057
14,GCTGGGTA,-0.0116
15,CTTGAGAA,-0.106
16,AACGTTCC,-0.1
17,GGAGTTTA,-0.249
18,ATTTCGTA,0.273
19,CGGCGCAG,-0.0595
20,ACCCTCAT,-0.207
21,AGTACCAC,-0.127
22,CCGGTTAG,-0.22
23,GCTAGTGA,0.194
24,GCCGATAC,0.0706
25,CGAAATGC,0.089

# An excerpt of these results, with tabs:
row	Sequence	PBM E-score
1	TAGTGCCA	-0.05
2	ACGCTAGA	-0.233
3	ACCGAGGA	-0.112

# Following part.

row,Sequence,PBM E-score
1,CACGCATC,0.0665
2,ATACTCCG,0.158
3,AACGAGTG,0.162
4,TAACAGGA,0.0454
5,TACTGTCA,0.146
6,AGGATTCA,0.0301
7,ACCCCCCT,-0.334
8,CAACAATA,0.114
9,CGCCTAAC,0.117
10,CTACCGAA,-0.131
11,CTCCAAGA,-0.175
12,CTGGAGTC,-0.25
13,ACCCTCGT,-0.0001
14,ACTTCCCG,0.0488
15,GGCTAGTA,0.21
16,AGTTAGGA,0.0889
17,CTTTCCAC,0.0558
18,ACGTATAC,0.162
19,AATTGCGC,-0.0775
20,CATGGTAA,0.0567
21,ACGCAAGT,-0.103
22,AGTTAGTC,0.0121
23,GTGCGACA,0.128
24,AGGAATGA,0.149
25,CACTTCCG,-0.091

row,Sequence,PBM E-score
1,CGCGGGAC,-0.172
2,CATGGCAC,-0.15
3,CGTGGGCA,0.0108
4,CGTATCGA,0.0981
5,CGTGAGAA,0.253
6,AACATTGA,-0.0377
7,CCACTCGA,0.0826
8,CTCGCACC,-0.0934
9,TCGTGAGA,0.263
10,AACCAGGC,-0.188
11,TCAAGTCA,0.0276
12,AAAGGCGC,0.102
13,GTCCGGCA,-0.0924
14,AGGCAACC,-0.0748
15,ATTAAAAA,0.279
16,GTCTGAAC,-0.0513
17,AAGAATTC,0.112
18,ACGTTTTC,0.0965
19,AAGGCGAA,-0.112
20,ACCGGCAT,-0.0711
21,CCAGTGAC,0.0883
22,ATATGAAC,0.0908
